Patent US20130018176A1 (AMGEN INC., priority 2007, published 2013)
Where a sequence shows no end group, the ends are not given.

Test: general procedure: Fmoc solid-phase peptide synthesis; Fmoc-Thr(tBu)-Wang resin (Novabiochem); DCC/HOBT (1:1)
Settings: whole synthesis, LC/MS on Waters Acquity HPLC-LCT Premier, scale of the general procedure 0.12 mmol equiv scale of the general procedure, several disulfide bridges, sequence written open

Sequence: DTHFPICIFCCGCCHRSKCGMCCKT
- final LC-MS purity: >95%
